Laboratory results: PubChem BioAssay AID686943 (Drosophila RNAi Screening Center, 2013)

Aim: 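Search across the genome for regulators of signalling from receptor tyrosine kinase to ERK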 (primary screen)
Cell system: Drosophila S2R+ haemocyte-like cells expressing YFP-tagged ERK (Rolled)
Knock-down reagent: long dsRNA against Drosophila genes
Conditions: insulin stimulation versus unstimulated cells; dose and duration not given
Measured: 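Per-plate z-scores of phospho-ERK immunostaining normalised to YFP-tagged ERK, measured with and without insulin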
Scale: replicate 1, z-score of dpERK with insulin and replicate 2, z-score of dpERK with insulin: higher = more active ERK per ERK-YFP after insulin; replicate 1, z-score of dpERK under basal conditions: higher = more basal active ERK per ERK-YFP; replicate 1, z-score of ERK-YFP with insulin: higher = more YFP-tagged ERK signal
The screen tested about 23,000 reagents; below is an unselected part of those that have a named target and a result. 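Extra replicates exist only for a retested subset of genes; insulin dose and duration not given; both raised and lowered dpERK matter.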 Reagent sequences are not shown. The record does not give: the amount of reagent, the time to read-out.

| target | dsRNA | replicate 1, z-score of dpERK with insulin | replicate 2, z-score of dpERK with insulin | replicate 1, z-score of dpERK under basal conditions | replicate 1, z-score of ERK-YFP with insulin |
| --- | --- | --- | --- | --- | --- |
| ChAT | DRSC13314 | 0.31 | 1.26 | 0.17 | 0.18 |
| ChAT | DRSC16609 | -0.77 | -0.45 | -1.56 | 0.52 |
| ChAT | DRSC22755 | 0.25 | 0.03 | -0.88 | -0.52 |
| Ir62a | DRSC08250 | -0.17 | -0.58 | 0.61 | 0.49 |
| CG6843 | DRSC10725 | 0.26 | -0.1 | 0.16 | 0.54 |
| opa | DRSC12384 | 0.56 | 0.28 | 0.33 | 0.61 |
| opa | DRSC22563 | -0.86 | 0.02 | -1.72 | 0.04 |
| CG32204 | DRSC09574 | 4.82 | 4.76 | 4.64 | -7.69 |
| Cyp49a1 | DRSC06737 | -0.04 | -0.33 | -0.07 | 0.34 |
| Cyp49a1 | DRSC07367 | 0.14 | 0.18 | -0.3 | -0.21 |
| CG32809 | DRSC18507 | 0.11 | 0.05 | -0.29 | -0.35 |
| CG32809 | DRSC18592 | 0.01 | 0.29 | 1.22 | 0.41 |
| Cdep | DRSC12028 | -1.53 | -1.28 | -0.96 | -0.53 |
| Cdep | DRSC12220 | -1.13 | -1.04 | -1.7 | 0.68 |
| Cdep | DRSC12291 | 0.44 | -0.38 | -1.06 | 0.18 |
| DIP-beta | DRSC20461 | -0.8 | -0.62 | 0.33 | -1.11 |
| DIP-beta | DRSC20489 | 0.32 | -0.58 | -0.82 | -0.01 |
| DIP-beta | DRSC20490 | 0.29 | 0.33 | -1.35 | 0.1 |
| DIP-beta | DRSC20505 | 0.44 | 0.76 | 0.68 | -0.05 |
| Spt7 | DRSC19997 | 0.05 | 0.95 | -1.49 | -1.67 |
| Pi4KIIalpha | DRSC12322 | 0.7 | -0.18 | -0.45 | 0.89 |
| Pi4KIIalpha | DRSC12323 | 1.22 | -0.09 | 0.54 | 0.04 |
| CG13323 | DRSC06360 | -0.4 | 0.56 | 0.05 | 0.63 |
| Gp93 | DRSC15827 | 1.2 | 0.59 | -0.41 | 0.09 |
| CG31327 | DRSC13019 | -0.03 | 0.32 | 0.45 | -1.04 |
| CG31007 | DRSC14029 | -0.29 | -0.17 | 0.05 | 0.34 |
| CG32023 | DRSC08946 | 0.59 | 0.39 | 0.18 | 0.53 |
| CG34160 | DRSC01131 | 1.1 | 0.36 | -0.45 | -0.21 |
| papi | DRSC00693 | -0.58 | -0.83 | -0.61 | 1.23 |
| mael | DRSC11894 | 0.08 | 0.1 | -0.43 | 0.23 |
| CG4691 | DRSC01950 | -0.26 | -0.72 | 1.19 | -0.29 |
| CG43329 | DRSC11672 | -1.29 | 1.42 | -0.1 | 0.21 |
| Pgant9 | DRSC05621 | 0.58 | 0.23 | 0.86 | 0.4 |
| Pgant9 | DRSC06584 | 0.14 | 0.01 | 1.08 | -0.07 |
| Pgant9 | DRSC07185 | -0.12 | -0.12 | -0.85 | 0.33 |
| Pgant9 | DRSC07186 | -0.92 | -0.89 | -1.32 | 0.44 |
| Pgant9 | DRSC07187 | 1.1 | 1.27 | 1.06 | -0.61 |
| Pgant9 | DRSC07189 | -0.25 | -0.02 | 0.71 | 0.32 |
| Pgant9 | DRSC21807 | 1.09 | -0.03 | -0.61 | -1.06 |
| Pgant9 | DRSC22076 | -0.19 | -0.26 | 0.43 | -1.23 |
| dhd | DRSC18761 | 1.16 | 0.42 | 0.28 | -0.19 |
| Or47a | DRSC07491 | 0.18 | -0.81 | -0.53 | 0.05 |
| CG7872 | DRSC20062 | 0.32 | 0.08 | -0.09 | 0.48 |
| CG14646 | DRSC12232 | -0.06 | 1.29 | 0.84 | 0.4 |
| CG14646 | DRSC21316 | 0.41 | -0.57 | 0.43 | -0.93 |
| CG3106 | DRSC18279 | 0.68 | 0.28 | -0.03 | 0.26 |
| LTV1 | DRSC05951 | -0.07 | -0.63 | -0.24 | -0.68 |
| Phae1 | DRSC02554 | 0.85 | 0.49 | 0.15 | 0.03 |
| CG7115 | DRSC02000 | 0.18 | 0.33 | 1.06 | 0.11 |
| Sema5c | DRSC11279 | 1.06 | 1.11 | 0.41 | -0.46 |
| PPP1R15 | DRSC04422 | -3.17 | -2.46 | -1.89 | -1.23 |
| klg | DRSC13591 | -2.73 | -0.54 | 1.13 | 2.25 |
| klg | DRSC16978 | -0.07 | -0.65 | -1.42 | -1.45 |
| rk | DRSC03602 | -0.26 | -0.08 | 0.83 | 0.58 |
| Ssl | DRSC04657 | 0.51 | 0.32 | 0.38 | -0.31 |
| CG31301 | DRSC22164 | 0.09 | 0.36 | -0.5 | -0.02 |
| CG15909 | DRSC04977 | -0.22 | 1.41 | -0.07 | 1.96 |
